Assay results taken from PubChem BioAssay AID504444 (National Center for Advancing Translational Sciences (NCATS), 2011).
In all, about 360,000 compounds went through this assay and about 7,500 (2.1%) were called active. The inconclusive results got no clear call from the source; some entries with a clear call stand among them for comparison. Calls follow the shape of the dose curve; as a rule, active = well fitted inhibition curve with a large enough effect; inconclusive = small, poorly fitted or top-dose-only effect, or effect the other way; inactive = flat fitted curve, though single readings scatter. A potency beside an inconclusive call is a rough fit, not a confirmed value.

Test: Nrf2 qHTS screen for inhibitors; also: nearly all actives have a fitted effect of over 60% in size
Settings: A549 ARE-Fluc reporter, luciferase luminescence, 18-24 h; activity change, negative = inhibition: at 46 µM (top of the series)
How it was run: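 A549 ARE_Fluc cells (5000/well, 5% FBS OPTI-MEM) pre-incubated 2 h, then treated with compounds 18-24 h at 37C/5% CO2 in concentration-response. CellTiter-Fluor viability read first; BugLite luciferase luminescence after 15 min at room temperature gives Nrf2 activity.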
% is scaled to controls: 0 for no effect and ±100 for the full control effect; potency is read from the fitted curve at half-maximal effect.

For CCN(CCCNC(=O)c1cc(Nc2ccc(OC)cc2)nc2ccccc12)c1cccc(C)c1, which “activity change, negative = inhibition” value is on record?
The value was inactive: 6.69%.

With Clc1ccc(CSc2nccn2Cc2ccccc2)cc1 as the compound, how does the Potency read?
Its Potency is inconclusive: 18.4 µM [falling, single point].

With CCn1nc(C)c(CN2CCCC(CO)(Cc3ccccc3)C2)c1C (configuration not stated) as the compound, how does the Potency read?
The Potency was inconclusive: 20.6 µM [falling, partial curve, poor fit].

With COc1ccccc1N1CCN(Cc2cc(Br)c(O)c3ncccc23)CC1 as the compound, how does the Potency read?
The Potency was active: 18.4 µM.

With COc1cccc(CNC(=O)c2ccc3c(c2)N(Cc2ccc(F)cc2Cl)C(=O)c2ccccc2S3)c1 as the compound, how does the Potency read?
The Potency was inconclusive: 16.4 µM [falling, single point].

With CCN(CC)C(=O)CSc1nc(Cc2ccccc2)nc2ccccc12 as the compound, how does the Potency read?
The Potency was inconclusive: 18.4 µM [falling, partial curve, poor fit].

With Cc1ccc(Cl)cc1NC(=O)Nc1cn(CC(C)C)c(=O)c2ccccc12 as the compound, how does the activity change, negative = inhibition read?
Its activity change, negative = inhibition is inactive: 8.86% [at 9.27 µM].

Which “activity change, negative = inhibition” value does the source give for CCCc1nn2c(=O)cc(COC(=O)C3CCCCC3)nc2s1 here?
The value was inactive: 2.32%.

For COc1cc(/C=N/Nc2ccc(Cl)nn2)cc(OC)c1O, which Potency is on record?
Its Potency is inconclusive: 18.4 µM [falling, single point].

Which Potency does the source give for O=C(Cc1ccccc1Cl)c1ccccc1 here?
The Potency was inconclusive: 6.51 µM [activator, single point].

Which Potency does the source give for CCOC(=O)N1CCC(Nc2cc(C)nc3c(-c4ccccc4OC)c(C)nn23)CC1 here?
The Potency was active: 9.2 µM.

For O=C1CN(C(=O)COc2ccccc2)C(c2ccc(F)cc2)c2cc(Br)ccc2N1 (configuration not stated), which activity change, negative = inhibition is on record?
The activity change, negative = inhibition was inactive: -26.4% [at 9.27 µM].

With COc1ccc(OCC(=O)Nc2ccc(Cl)c(-c3nc4ncccc4o3)c2)cc1 as the compound, how does the “activity change, negative = inhibition” value read?
The value was inactive: -5.88%.

Which Potency does the source give for COc1ccc(-n2nc(C(=O)NCC(=O)NC3CCCC(C)C3C)c3ccccc3c2=O)cc1 (configuration not stated) here?
The Potency was inconclusive: 29.1 µM [falling, single point].

For COc1cccc(NC(=O)CSc2ccc(-c3sc(C)nc3C)nn2)c1, which Potency is on record?
Its Potency is inconclusive: 25.9 µM [falling, partial curve, poor fit].

With O=C(N/N=C/c1ccc(N2CCOCC2)c([N+](=O)[O-])c1)c1ccc(F)cc1 as the compound, how does the “activity change, negative = inhibition” value read?
Its value is inactive: -4.35%.

Which “activity change, negative = inhibition” value does the source give for COC(=O)c1ccccc1NC(=O)c1oc2ccc3c(c2c1C)C(=O)CC(C)(C)O3 here?
The value was inactive: 13.7%.

Which “activity change, negative = inhibition” value does the source give for Cc1cc(C(=O)NCCc2ccc(S(N)(=O)=O)cc2)c(C)o1 here?
Its value is inactive: 0.941%.

For O=C(Cc1cn(Cc2cccc(Cl)c2)c2ccccc12)N1CCCC1, which Potency is on record?
Its Potency is inconclusive: 7.31 µM [falling, partial curve].

For O=C(N/C=N/OCc1ccc(Cl)cc1Cl)NOCc1c(Cl)cccc1Cl, which Potency is on record?
Its Potency is active: 25.9 µM.

For O=C(c1cc(-c2ccc(Cl)cc2)on1)N1CCCCCC1, which Potency is on record?
Its Potency is inconclusive: 1.64 µM [activator, full curve].

With O=C(COc1ccc(Cl)cc1)Nc1cccc(-c2ccc(N3CCOCC3)nn2)c1 as the compound, how does the Potency read?
The Potency was inconclusive: 2.91 µM [activator, partial curve, poor fit].

For Cc1ccc(NC(=O)Cn2c(=O)n(CCCCC(=O)NCc3ccco3)c(=O)c3ccccc32)cc1, which “activity change, negative = inhibition” value is on record?
Its value is inactive: -15.3%.

Which “activity change, negative = inhibition” value does the source give for O=C(Nc1cccc([N+](=O)[O-])c1)c1ccncc1 here?
The value was inactive: 6.41%.

With COc1cccc(-c2nc3ccc([N+](=O)[O-])cc3o2)c1 as the compound, how does the Potency read?
The Potency was inconclusive: 1.46 µM [activator, full curve].

For O=c1[nH]c(=O)n(C2OC(CO)C(O)C2O)cc1F (configuration not stated), which Potency is on record?
Its Potency is inconclusive: 0.259 µM [falling, full curve].

With N#CCCN(C(=O)CSc1ccc2c(c1)OCCO2)c1ccc(F)cc1 as the compound, how does the Potency read?
The Potency was inconclusive: 23.1 µM [falling, single point].

With CCN(CC)CCCN(C(=O)c1ccco1)c1nc(-c2ccc(Cl)cc2)cs1 as the compound, how does the “activity change, negative = inhibition” value read?
The value was inactive: -5.21%.

Which “activity change, negative = inhibition” value does the source give for CCC(=O)Nc1nc2nc(C)cc(=O)n2[nH]1 here?
Its value is inactive: 10.7%.

For O=C(Nc1ccccc1)Nc1cccn(Cc2c(F)cccc2Cl)c1=O, which Potency is on record?
Its Potency is inconclusive: 29.1 µM [falling, single point].

With Cc1cccn2c(=O)c3cc(C(=O)NCCc4ccccc4)sc3nc12 as the compound, how does the Potency read?
The Potency was inconclusive: 23.1 µM [falling, single point].

With CN(CCO)C(=O)CCC(=O)Nc1ccc(S(N)(=O)=O)cc1 as the compound, how does the Potency read?
Its Potency is inconclusive: 4.11 µM [falling, full curve, poor fit].

For Cc1ccc(NC(=O)NC(C)c2c(-n3cccc3)sc(C)c2C)cc1F (configuration not stated), which Potency is on record?
Its Potency is active: 23.1 µM.

With CCOc1ccc(S(=O)(=O)Nc2cccc(Cl)c2)cc1 as the compound, how does the Potency read?
Its Potency is active: 13 µM.

Which “activity change, negative = inhibition” value does the source give for O=C(Nc1cccc(C(F)(F)F)c1)c1cccnc1NCCc1ccccc1 here?
Its value is inactive: 4.62%.

Which “activity change, negative = inhibition” value does the source give for Cc1cc(C)n(CC(C)NC(=O)c2cc(COc3ccc(F)c(F)c3)on2)n1 (configuration not stated) here?
The value was inactive: 37.1%.

For O=C(NCC1CCCN1S(=O)(=O)c1cccs1)c1cccc(F)c1 (configuration not stated), which Potency is on record?
Its Potency is active: 13 µM.

Which “activity change, negative = inhibition” value does the source give for Cc1cc(NC(=O)c2cc(-c3ccccc3)on2)no1 here?
The value was inactive: 4.42%.

Which Potency does the source give for Nc1ccc2oc3ccccc3c2c1 here?
Its Potency is inconclusive: 20.6 µM [activator, partial curve].

Which Potency does the source give for CC(C)Sc1nnc(NC(=O)c2ccc3c(c2)OCO3)s1 here?
Its Potency is inconclusive: 20.6 µM [activator, single point].

For CCC(O)c1nc2ccccc2n1CCOc1cc(C)cc(C)c1 (configuration not stated), which Potency is on record?
Its Potency is inconclusive: 29.1 µM [falling, single point].

With CS(=O)(=O)N(CC(=O)NCCSCc1ccccc1)c1ccccc1F as the compound, how does the “activity change, negative = inhibition” value read?
The value was inactive: 0.884%.

For Cc1ccc(C(C)NC(=S)NCc2ccc(F)cc2)c(C)c1 (configuration not stated), which Potency is on record?
The Potency was inconclusive: 23.1 µM [falling, single point].

Which Potency does the source give for O=[N+]([O-])c1nn(-c2ccc3c(c2)OCCO3)n(O)c1=NCCCO here?
The Potency was inconclusive: 9.2 µM [activator, partial curve].

For CC(=O)c1ccc(-n2c(SCC(=O)c3c[nH]c4ccccc34)nc3ccccc3c2=O)cc1, which Potency is on record?
The Potency was inconclusive: 7.31 µM [falling, partial curve].

For Cn1c(=O)c(C(=O)COC(=O)c2cc(C3CC3)nc3ccccc23)c(N)n(Cc2ccccc2)c1=O, which Potency is on record?
Its Potency is inconclusive: 14.6 µM [falling, partial curve, poor fit].

With CCC(C)n1c(SCc2ccc([N+](=O)[O-])cc2)nc2ccsc2c1=O (configuration not stated) as the compound, how does the Potency read?
The Potency was inconclusive: 18.4 µM [falling, partial curve].
